From the supplement of paper PMC11546906
Structures can show the parent of a compound that is named as a salt. Some of the results follow. This data set is noisy: repeats of one test often differ as much as different tests do.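 Screen of FDA-approved drugs, each combined with colistin at one-eighth of its MIC, against a multidrug-resistant mcr-1-positive clinical E. coli isolate; growth read as OD600 after 24 h. Bacteria without drug were the growth control and plain broth the blank. A combination counted as active when OD600 fell below 0.2.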

system: Escherichia coli 42 (mcr-1-positive clinical isolate); assay: OD600 after 24 h growth with compound plus colistin (absorbance units (OD600)); higher = more bacterial growth (less inhibition); details: first compound 25 µM; colistin concentration 0.5 ug/mL; incubation time 24 h; 37 °C

OD600, inactive:
C#C[C@]1(O)CC[C@H]2[C@@H]3CCC4=CC(=O)CC[C@@H]4[C@H]3CC[C@@]21CC [Levonorgestrel] + CCC(C)CCCC(=O)N[C@@H](CCN)C(=O)N[C@H](C(=O)N[C@@H](CCN)C(=O)N[C@H]1CCNC(=O)[C@H]([C@@H](C)O)NC(=O)[C@H](CCN)NC(=O)[C@H](CCN)NC(=O)[C@H](CC(C)C)NC(=O)[C@@H](CC(C)C)NC(=O)[C@H](CCN)NC1=O)[C@@H](C)O [colistin] 1.13
CN1CCC(=C2c3ccccc3CC(=O)c3sccc32)CC1 [Ketotifen fumarate] + CCC(C)CCCC(=O)N[C@@H](CCN)C(=O)N[C@H](C(=O)N[C@@H](CCN)C(=O)N[C@H]1CCNC(=O)[C@H]([C@@H](C)O)NC(=O)[C@H](CCN)NC(=O)[C@H](CCN)NC(=O)[C@H](CC(C)C)NC(=O)[C@@H](CC(C)C)NC(=O)[C@H](CCN)NC1=O)[C@@H](C)O [colistin] 0.869
CCCSc1ccc2[nH]c(NC(=O)OC)nc2c1 [Albendazole] + CCC(C)CCCC(=O)N[C@@H](CCN)C(=O)N[C@H](C(=O)N[C@@H](CCN)C(=O)N[C@H]1CCNC(=O)[C@H]([C@@H](C)O)NC(=O)[C@H](CCN)NC(=O)[C@H](CCN)NC(=O)[C@H](CC(C)C)NC(=O)[C@@H](CC(C)C)NC(=O)[C@H](CCN)NC1=O)[C@@H](C)O [colistin] 0.626
CC(=O)O[C@H]1C(=O)[C@@]2(C)[C@H]([C@H](OC(=O)c3ccccc3)[C@]3(O)C[C@H](OC(=O)[C@H](O)[C@@H](NC(=O)c4ccccc4)c4ccccc4)C(C)=C1C3(C)C)[C@]1(OC(C)=O)CO[C@@H]1C[C@@H]2O [Paclitaxel] + CCC(C)CCCC(=O)N[C@@H](CCN)C(=O)N[C@H](C(=O)N[C@@H](CCN)C(=O)N[C@H]1CCNC(=O)[C@H]([C@@H](C)O)NC(=O)[C@H](CCN)NC(=O)[C@H](CCN)NC(=O)[C@H](CC(C)C)NC(=O)[C@@H](CC(C)C)NC(=O)[C@H](CCN)NC1=O)[C@@H](C)O [colistin] 0.937
